Data reported in PubChem BioAssay AID493014 (National Center for Advancing Translational Sciences (NCATS), 2011).
Out of some 340,000 compounds screened, about 170 (0.05%) were called active. Inconclusive means that the source gave no clear call. Such entries were picked first, then a sample of the others. The call rests on the fitted dose curve; in most records, active means well fitted inhibition curve with a large enough effect in the signal ratio, with a control signal flat (not every such curve was filed as active); inconclusive means small, poorly fitted or top-dose-only effect, or effect the other way, or a change in a side signal; inactive means flat fitted curve, though single readings scatter; the % refers to the signal ratio. Potencies of inconclusive entries are doubtful fits and often do not repeat.

assay: qHTS Assay to Find Inhibitors of Chronic Active B-Cell Receptor Signaling; conditions: ABC-DLBCL IkBa-CBG/CBR reporter, luminescence ratio (green luciferase fused to IkBa over red control in TMD8 lymphoma cells), 4 h; activity change, negative = inhibition: at 46.1 µM (top of the series) unless noted;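 on activity change, negative = inhibition: plate controls were basal doxycycline-induced cells for no effect and cells given 10 µM MG132 for full effect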
Outline: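 Cell line TMD8 (human ABC DLBCL), stably expressing tet-inducible CBG68-IkBa fusion and CBR; IMDM/0.5% FBS; cpd up to 46 uM; dox induction, 4 h, 37C/5% CO2; dual luminescence; green/red ratio; MG132 control.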
Potency means the concentration at half of the fitted maximal effect.

Structure (SMILES)	activity change, negative = inhibition	Potency
CC(C)(C)c1ccccc1NC(=S)NC1CCCC1	inactive: 5.4%	–
Cc1ccc(/C=N/NC(=O)Cn2cnc3ccccc32)cc1	inactive: 5.69%	–
CC(C)N1C(=S)N(Cc2ccco2)C(=O)C1CC(=O)Nc1ccccc1 (configuration not stated)	–	inconclusive: 35.5 µM [falling, single point]
COC(=O)c1nn(-c2ccccc2)c(Sc2ccc(C)cc2)c1/C=N/O	–	inconclusive: 17.8 µM [falling, partial curve, poor fit]
O=C(COC(=O)c1ccccn1)Nc1nc(-c2cccc([N+](=O)[O-])c2)cs1	inconclusive: 5.27%	–
COc1cccc(/C=C/C(=O)NCCc2ccc3c(c2)OCCO3)c1	inconclusive: -16%	–
COc1ccccc1[C@H]1C(c2ccc(F)cc2)=NN(c2ccccc2)[C@@H]1CO	inconclusive: -0.129%	–
Cc1ccc(-n2nc3cc(C)c(NC(=S)NC(=O)/C=C/c4ccco4)cc3n2)cc1	inconclusive: -0.272%	–
Cc1[nH]n(-c2ccccc2)c(=O)c1N=O	–	inconclusive: 0.251 µM [activator, full curve]
CN(C)S(=O)(=O)c1cc(NC(=O)COC(=O)CC2Sc3ccccc3NC2=O)ccc1Cl (configuration not stated)	inconclusive: -0.234%	–
O=c1ccc(-c2ccc(S(=O)(=O)Nc3cccc([N+](=O)[O-])c3)s2)n[nH]1	–	inconclusive: 22.4 µM [falling, partial curve, poor fit]
CN(C)S(=O)(=O)c1ccc(C(=O)Nc2nc(-c3cccs3)cs2)cc1	–	inconclusive: 0.517 µM [rising, full curve]
COc1ccc(OC(=O)c2c(C)nn(-c3ccccc3)c2C)cc1	inconclusive: 13.9%	–
COc1ccc(Cn2c(=N)c(C(=O)NC3CCCCC3)cc3c(=O)n4ccccc4nc32)cc1	inactive: 5.13%	–
O=C(CCCCCn1c(=S)[nH]c2ccc(N3CCOCC3)cc2c1=O)NCc1cccc(Cl)c1	inactive: -6.82%	–
Cc1ccc(S(=O)(=O)NCCN=C(CN2CCOCC2)NS(=O)(=O)c2ccc(C)cc2)cc1	–	inconclusive: 16.4 µM [falling, single point]
COc1ccc2nc(Nc3ccccc3OC)sc2c1	–	inconclusive: 25.1 µM [falling, single point]
CCCC(=O)Nc1ccc2oc(=O)ccc2c1	inactive: -18.1%	–
CCC1C(=O)C[C@H]2CCN3C(=O)CCCC1C23 (some centres not stated)	inconclusive: 6.52%	–
Oc1ccc(C=Nc2cccc3ccccc23)c(O)c1	–	inconclusive: 17.8 µM [falling, partial curve, poor fit]
Cc1c(C(=O)OCC(=O)Nc2ccc3c(c2)OCO3)cccc1[N+](=O)[O-]	inactive: -4.17%	–

Structure (SMILES)	activity change, negative = inhibition	Potency
C=CCN1C(=O)/C(=C/c2ccc(O)c(OC)c2)S/C1=N/c1nccs1	inconclusive: 5.52%	–
C[C@@H]1CC=C[C@H]2[C@H]1C(=O)N(Cc1ccccc1)[C@H]2c1ccc(Br)cc1F	inconclusive: 8.28%	–
Cc1ccc(-n2c(C)cc(/C=N/NC(N)=S)c2C)cc1	inactive: -20.2%	–
C#CCCc1ccccc1/C=[N+](/C)[O-]	–	inconclusive: 20.6 µM [falling, partial curve]
CCOC(=O)N1CCc2c(sc(NC(=O)CN3CCOCC3)c2C#N)C1	–	inconclusive: 20 µM [falling, partial curve, poor fit]
CCCCCc1cc(=O)c2ccccc2o1	inconclusive: 5.95%	–
N/C(=N\OC(=O)CC1CCCCC1)c1ccc([N+](=O)[O-])cc1	inconclusive: 8.36%	–
Cc1ccc(-n2c(N)c(C(=O)Nc3c(C)n(C)n(-c4ccccc4)c3=O)c3nc4ccccc4nc32)cc1	inactive: -0.587%	–
CCc1cccc(NC2c3ccccc3C(=O)N2c2ccc(C)cn2)c1 (configuration not stated)	inconclusive: 17.3%	–
CS(=O)(=O)N(CC(=O)Nc1ccccc1Br)Cc1ccccc1	inactive: -2.79%	–
COc1cccc(NC(=O)N2CCC(NC(=O)C(Cc3ccccc3F)NC(C)=O)CC2)c1 (configuration not stated)	inconclusive: 0.256%	–
Cc1cc(C(=O)Nc2ccc(Cl)cc2)c2ccccc2n1	inconclusive: 12.1%	–
O=C(Nc1nc2c(s1)CN(Cc1ccccc1)CC2)C1CCC1	inconclusive: 5.46%	–
COc1ccc(NC(=O)CNS(=O)(=O)c2ccccc2)cc1Cl	inactive: -16.4%	–
Cc1cc(/C=N/NC(=O)c2ccncc2)c(C)n1-c1cccc(C(F)(F)F)c1	inactive: -13.7%	–
COc1cccc(CC2(CO)CCCN(Cc3cc(F)ccc3-n3cccn3)C2)c1 (configuration not stated)	inactive: -1.69%	–
COc1cc2c(cc1OC)CN(Cc1cc(=O)oc3cc(C)c(C)cc13)CC2	inactive: 0.332%	–
C=CCSc1nnc(-c2cc3c(s2)-c2ccccc2CC3)o1	–	inconclusive: 3.26 µM [rising, partial curve, poor fit]
CC(C)(C)c1ccc(C(=O)c2c[nH]c(C(=O)NCc3cccnc3)c2)cc1	–	inconclusive: 18.4 µM [falling, partial curve]
COc1ccc(C(=O)NCCCNC(=O)c2cnccn2)cc1Br	inconclusive: -0.263%	–
CC(C)CCC(CCNCc1ccccn1)c1ccc(Cl)cc1 (configuration not stated)	inconclusive: -18.1%	–

Structure (SMILES)	activity change, negative = inhibition	Potency
COc1ccc2cc(-c3ccon3)ccc2c1	inconclusive: -3.11%	–
COc1cc(-c2nnc(SCc3c(F)cccc3Cl)o2)cc(OC)c1OC	inconclusive: -10%	–
NC(=O)c1cc(-c2ccccc2)sc1NC(=O)CN1CCCCC1	inconclusive: 5.56%	–
COc1ccc(/C=N/NC(=O)c2cccnc2)cc1COc1ccc(NC(C)=O)cc1	inconclusive: 1.39%	–
CN(C)S(=O)(=O)c1ccc(C(=O)NNc2nc(-c3ccccc3)c3cc(Br)ccc3n2)cc1	inactive: 2.78%	–
CCn1ncc(/C=N/O)c1C	inconclusive: 6.3%	–
Cc1ccc(C)c(NC(=S)NNC(=O)c2ccc(Br)o2)c1	–	inconclusive: 10 µM [falling, partial curve]
COc1ccccc1C1(O)C(=O)Nc2ccccc21 (configuration not stated)	inconclusive: 3.47%	–
Cc1ccc(S(=O)(=O)N2CCC(C(=O)N[C@@H](C)C(=O)NCCc3ccccc3)CC2)cc1	inconclusive: 4.52%	–
CC(C)(C)c1ccc(C(=O)Nc2ccc(F)cc2)s1	inconclusive: -15%	–
CCOc1ncccc1C(=O)OCC(=O)Nc1ccc(Cl)cn1	inconclusive: 4.71%	–
CCN(CC(=O)NC1CCCC1)S(=O)(=O)c1ccc(Br)cc1	inconclusive: 4.54%	–
Nc1ccc(S(=O)(=O)Nc2nccc(/C=C/c3ccc(Cl)cc3Cl)n2)cc1	–	inconclusive: 0.794 µM [falling, full curve, poor fit]
Cc1cccc(-n2c(CCn3nc(C)c([N+](=O)[O-])c3C)n[nH]c2=S)c1	inconclusive: 17.8%	–
COc1ccc(C(=O)Nn2c(CCC(=O)O)ccc2-c2ccc(C)cc2)cc1OC	inconclusive: 22.6%	–
Cc1c(NC(=O)C(C)OC(=O)c2cccnc2Cl)c(=O)n(-c2ccccc2)n1C (configuration not stated)	inconclusive: 0.184%	–
Cc1c(C(=O)Nc2c(N)nc(SCC(=O)NCC3CCCO3)[nH]c2=O)cccc1[N+](=O)[O-] (configuration not stated)	inactive: -4.25%	–
O=C(NC1CCCCC1)N1CCCC1	–	inconclusive: 2.31 µM [rising, single point]
COc1cc2c(cc1NC(=O)c1cccc(S(=O)(=O)N(C)C)c1)oc1ccccc12	inconclusive: -14.7%	–
O=C(CC1SC2=NCCN2C1=O)Nc1ccc(Cl)cc1 (configuration not stated)	inconclusive: 2.05%	–
CCCOc1ccc(C(=O)c2nc3c(n2O)CCCCC3)cc1	inactive: 0.44%	–

5 structures out of the list, sorted by length of the SMILES, smallest number first:
Structure (SMILES)	activity change, negative = inhibition	Potency
CCn1ncc(/C=N/O)c1C	inconclusive: 6.3%	–
O=C(NC1CCCCC1)N1CCCC1	–	inconclusive: 2.31 µM [rising, single point]
NC(=O)c1cc(-c2ccccc2)sc1NC(=O)CN1CCCCC1	inconclusive: 5.56%	–
COc1ccc(/C=N/NC(=O)c2cccnc2)cc1COc1ccc(NC(C)=O)cc1	inconclusive: 1.39%	–
Cc1cccc(-n2c(CCn3nc(C)c([N+](=O)[O-])c3C)n[nH]c2=S)c1	inconclusive: 17.8%	–

(cont.)

Structure (SMILES)	activity change, negative = inhibition	Potency
COc1cccc(NC(=O)C(Cc2ccccc2)n2cccc2)c1 (configuration not stated)	inconclusive: -8.14%	–
Cc1ccccc1OCC(=O)OCC(=O)NCCNC(=O)COC(=O)COc1ccccc1C	inconclusive: -0.786%	–
O=C1CCC(C(=O)OCc2ccccc2)N1 (configuration not stated)	–	inconclusive: 23.1 µM [rising, partial curve]
CN(C(=O)CN1C(=O)/C(=C/c2ccccc2F)SC1=S)C1CCS(=O)(=O)C1 (configuration not stated)	inconclusive: 1.43%	–
O=C(Cc1ccc(Br)cc1)Nc1ncc([N+](=O)[O-])s1	–	inconclusive: 15.8 µM [falling, partial curve]
N#Cc1ccccc1OCC(=O)NC(N)=O	inconclusive: 5.71%	–
C/C(CC(=O)Nc1cccc(Cl)c1Cl)=N\NC(=O)c1ccccc1N	–	inconclusive: 35.5 µM [rising, single point]
CC(Oc1ccc(Cl)cc1Cl)C(=O)Nc1ncccn1 (configuration not stated)	–	inconclusive: 15.8 µM [falling, partial curve]
CCCc1ccc(-c2cc(C(=O)NC3=NCCS3)c3ccccc3n2)cc1	inactive: -9.26%	–
Cc1cc2cc(OCc3ccccc3)ccc2n1C	inconclusive: -2.52%	–
CN(C)Cc1nc2ccccc2c(=O)n1CC#N	inconclusive: 5.98%	–
Cc1cc(NS(=O)(=O)c2ccc(NC(=O)C(C)Oc3cc(C)c(Cl)c(C)c3)cc2)no1 (configuration not stated)	inconclusive: 2.13%	–
Cc1ccc2cc(CCNC(=O)c3ccc(S(=O)(=O)N4CCCCC4)cc3)c(=O)[nH]c2c1	inactive: 2.54%	–
Cc1ccc(-n2c(SCC(=O)O)nc3sc4c(c3c2=O)CCCC4)cc1	inactive: 9.87%	–
CC(C)Oc1ccc(C(=O)OCC(=O)c2ccc[nH]2)cc1	inactive: -2.4%	–
CCN(CC)S(=O)(=O)c1ccc(C(=O)NCCSc2c[nH]c3ccccc23)cc1	inconclusive: -16.4%	–
C=CCC[C@H](Cc1ccc(F)cc1)C(=O)OC[C@@H](NC(=O)[C@@H](CC=C)CC(=O)N[C@@H](CO)Cc1ccccc1)C(C)(C)C	inconclusive: -1.55%	–
CCCCn1c(=N)n(CC(O)COc2ccc(C)cc2)c2ccccc21 (configuration not stated)	inconclusive: -7.49%	–
O=C(COC(=O)CCc1ccccc1)NCc1ccccc1	inconclusive: -0.686%	–
